# Experiment: general procedure: solution-phase peptide synthesis; DCC/HOBt; HBTU/HOBt/DIPEA; TBTU/HOBt/DIPEA
# Conditions: TFA salts for intermediates, Azaline B as free base; for crude yield: whole synthesis
substance,measurement,setting,value
"Boc-Leu-Lys(iPr,Z)-Pro-D-Ala-NH2",crude yield,,87%
Ac-D-2-Nal-D-p-Cal-D-3-Pal-Ser-OH,step yield,late stage modification step,75.7%
Ac-D-NAL-D-pCal-D-3-PAL-Ser-OBn,step yield,coupling step,92.6%
Ac-p-D-2NAL-p-D-Cal-D-3PAL-Ser-Aph(Atz)-D-Aph(Atz)-Leu-Lys(ε-iPr)-Pro-D-Ala-NH2,step yield,late stage modification step,86.2%
"Aph(Atz)-D-Aph(Atz)-Leu-Lys(Z,iPr)-Pro-D-AlaNH2 x3TFA",step yield,late stage modification step,98%
"TFA-Leu-Lys(iPr,Z)-Pro-D-Ala-NH2",crude yield,,86.5%
"Boc-Aph(Atz)-D-Aph(Atz)-Leu-Lys(ε-Z, ε-iPr)-Pro-D-Ala-NH2",step yield,coupling step,89%

# — patent US5977302 (dated 1999)
